From PMC5347014
No constants are given. Whether binding was seen depends on the method and setting. For part of these data: In cells and extracts the contact can be indirect.

Columns and labels:
[1] = biological target: full-length AtClpC1 (Arabidopsis thaliana) (UniProt Q9FI56); experiment: co-purification; co-purification of AtClpS1 with the monomeric form of full-length AtClpC1; details in Supplemental data
[2] = biological target: full-length AtClpC1 (Arabidopsis thaliana) (UniProt Q9FI56); experiment: co-purification; co-purification of AtClpS1 with the hexameric form of full-length AtClpC1; details in Supplemental data
[3] = biological target: T1, AtClpC1 NTD (N-terminal domain of Arabidopsis thaliana ClpC1, residues 94-238) (Arabidopsis thaliana) (UniProt Q9FI56); experiment: pull-down; pull down assays to obtain a complex of AtClpS1 with AtClpC1 NTD; details in Supplemental data
T1 sequence: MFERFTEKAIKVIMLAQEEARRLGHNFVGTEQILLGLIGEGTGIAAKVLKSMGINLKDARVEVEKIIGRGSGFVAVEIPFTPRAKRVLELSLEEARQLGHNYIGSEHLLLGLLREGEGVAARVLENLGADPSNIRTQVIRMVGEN

Measured: binding

B1: AtClpS1 (protein, UniProt Q9SX29 45-159)
chain: AALGKGGGVLDKPIIEKTTPGRESEFDLRKSKKIAPPYRVILHNDNFNKREYVVQVLMKVIPGMTVDNAVNIMQEAHINGLAVVIVCAQADAEQHCMQLRGNGLLSSVEPDGGGC
no binding: all assays above
